Assay results reported in patent publication US8093229B2, “Alkynyl pyrrolo[2,3-d]pyrimidines and related analogs as HSP90-inhibitors” (Conforma Therapeutics Corporation, priority 2005, dated 2012).
Some results were stated once for a whole list of compounds, not compound by compound. Some ranges recur; such a range may be that of the whole group of compounds.

tested on: HER2/Neu protein; assay: Her2 degradation assay; type: cell-based; conditions: read-out: IC50 as measured by a Her-2 degradation assay
Excerpt: [drawing 219] wherein R^3′ is not alkynyl, which were disclosed in U.S. patent application Ser. No. 10/945,851 and PCT Application US04/31248. The pyrrolopyrimidine compounds specified in the EXAMPLE sections of the above patent applications carry either no substituent or a substituted alkyl group. […] A simple alkyl or a substituted alkyl at C-5 (ie R^3=alkyl or substituted alkyl) can only bring two-fold additional activity. Conversely, if C-5 is alkyne substituted, the potency increases approximately 10-20 fold. (See, Series A: compounds A, B, C and D below).
Many cancers are associated with the over expression Her2 protein. It has been shown that compounds able to diminish Her2 levels show good promise as anti-cancer agents.
MCF7 breast carcinoma cells (ATCC) were grown in Dulbecco's modified Eagle's medium (DMEM) containing 10% fetal bovine serum (FBS) and 10 mM HEPES, and plated in 24 well plates (50% confluent). Twenty-four hrs later (cells are 65-70% confluent), test compounds were added and incubated overnight for 16 h. […] After trypsinization was complete, 50 μL of FBS was added to each well. Then 200 μL cells were transferred to 96 well plates. The cells were pipetted up and down to obtain a single cell suspension. The plates were centrifuged at 2,500 rpm for 1 min using a Sorvall Legend RT™ tabletop centrifuge (Kendro Laboratory Products, Asheville, N.C.). The cells were then washed once in PBS containing 0.2% BSA and 0.2% sodium azide (BA buffer). Phycoerythrin (PE) conjugated anti IER2/Neu antibody (Becton Dickinson, #340552), or PE conjugated anti-keyhole limpet hemocyanin [KLH] […] Samples were analyzed using a FACSCalibur™ flow cytometer (Becton Dickinson, San Jose, Calif.) equipped with Argon-ion laser that emits 15 mW of 488 nm light for excitation of the PE fluorochrome. […] A fluorescence histogram was generated and the mean fluorescence intensity (MFI) of each sample was determined using Cellquest software. […] Percent degradation of Her2 was calculated as follows: % Her2 degraded=[(MFI untreated cells−MFI treated cells)/MFI untreated cell]×100. […]

Compound	IC50
COc1c(C)cnc(Cn2cc(C#CCCN3C(=O)c4ccccc4C3=O)c3c(Cl)nc(N)nc32)c1C [H]	6 to 17 nM
COc1c(C)cnc(Cn2cc(C#CCCC(N)=O)c3c(Cl)nc(N)nc32)c1C [G]	6 to 17 nM
COc1c(C)cnc(Cn2cc(C#CCCO)c3c(Cl)nc(N)nc32)c1C [F]	6 to 17 nM
